Laboratory results as given in paper PMC3639976.
No constants are given. Whether binding was seen depends on the method and setting. In cells and extracts the contact can be indirect. Binding calls can cover weak binding; strength is not graded here. For some of these results: Where a sequence is shown, tags or fusion partners need not be part of it.

Protein sequences, listed by entry. Tags and fused reporters are not part of them. Lines headed by an entry give the natural chain unless they say otherwise; changes in a name come on top.
UniProt O43318: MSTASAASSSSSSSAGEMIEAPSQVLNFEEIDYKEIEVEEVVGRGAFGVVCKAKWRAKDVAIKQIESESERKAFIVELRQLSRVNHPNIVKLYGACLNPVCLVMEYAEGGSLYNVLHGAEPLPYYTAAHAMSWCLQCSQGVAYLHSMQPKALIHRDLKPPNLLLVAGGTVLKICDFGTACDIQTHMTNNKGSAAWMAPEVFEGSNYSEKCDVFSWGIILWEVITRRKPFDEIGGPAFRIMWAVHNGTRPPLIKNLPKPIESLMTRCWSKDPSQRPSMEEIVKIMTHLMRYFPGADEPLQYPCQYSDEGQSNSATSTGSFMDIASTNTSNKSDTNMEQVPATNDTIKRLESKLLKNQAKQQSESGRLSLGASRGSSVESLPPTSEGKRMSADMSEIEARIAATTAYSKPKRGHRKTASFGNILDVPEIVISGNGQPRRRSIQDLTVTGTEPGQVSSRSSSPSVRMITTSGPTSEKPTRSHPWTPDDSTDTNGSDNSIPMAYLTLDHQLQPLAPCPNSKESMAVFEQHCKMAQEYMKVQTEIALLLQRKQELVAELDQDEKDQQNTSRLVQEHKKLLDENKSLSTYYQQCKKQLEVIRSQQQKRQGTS
UniProt P04792: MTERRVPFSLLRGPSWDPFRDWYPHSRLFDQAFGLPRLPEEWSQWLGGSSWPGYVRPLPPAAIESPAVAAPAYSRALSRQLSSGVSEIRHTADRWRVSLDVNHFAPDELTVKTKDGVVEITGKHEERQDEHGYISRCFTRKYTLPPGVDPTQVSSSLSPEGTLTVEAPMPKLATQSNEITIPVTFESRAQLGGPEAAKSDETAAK

B1: MYC-tagged TAB1 (protein, UniProt Q15750 1-504)
chain: MAAQRRSLLQSEQQPSWTDDLPLCHLSGVGSASNRSYSADGKGTESHPPEDSWLKFRSENNCFLYGVFNGYDGNRVTNFVAQRLSAELLLGQLNAEHAEADVRRVLLQAFDVVERSFLESIDDALAEKASLQSQLPEGVPQHQLPPQYQKILERLKTLEREISGGAMAVVAVLLNNKLYVANVGTNRALLCKSTVDGLQVTQLNVDHTTENEDELFRLSQLGLDAGKIKQVGIICGQESTRRIGDYKVKYGYTDIDLLSAAKSKPIIAEPEIHGAQPLDGVTGFLVLMSEGLYKALEAAHGPGQANQEIAAMIDTEFAKQTSLDAVAQAVVDRVKRIHSDTFASGGERARFCPRHEDMTLLVRNFGYPLGEMSQPTPSPAPAAGGRVYPVSVPYSSAQSTSKTSVTLSLVMPSQGQMVNGAHSASTLDEATPTLTNQSPTLTLQSTNTHTQSSSSSSDGGLFRSRPAHSLPPGEDGRVEPYVDFAEFYRLWSVDHGEQSVVTAP
B2: 3xFLAG-PPARβ/δ 166–440 (domain or fragment, UniProt P35396 166-440)
chain: QHNPQLADLKAFSKHIYNAYLKNFNMTKKKARSILTGKSSHNAPFVIHDIETLWQAEKGLVWKQLVNGLPPYNEISVHVFYRCQSTTVETVRELTEFAKNIPNFSSLFLNDQVTLLKYGVHEAIFAMLASIVNKDGLLVANGSGFVTHEFLRSLRKPFSDIIEPKFEFAVKFNALELDDSDLALFIAAIILCGDRPGLMNVPQVEAIQDTILRALEFHLQVNHPDSQYLFPKLLQKMADLRQLVTEHAQMMQWLKKTESETLLHPLLQEIYKDMY

Columns and labels:
GFP-tagged TAK1 [1] = molecular target: GFP-tagged TAK1 (UniProt O43318); experiment: co-IP; HEK293IL-1R cells transfected, GFP-TAK1 or GFP-TAB1 alone (no co-expressed MYC-TAB1); pulldown with GFP-Trap_A agarose beads, 2 h at 4°C, washes with lysis buffer (0,5 M NaCl); immunoblotting
GFP-tagged TAK1 [2] = molecular target: GFP-tagged TAK1 (UniProt O43318); experiment: co-IP; HEK293IL-1R cells transfected, GFP-TAK1 co-expressed with MYC-TAB1; pulldown with GFP-Trap_A agarose beads, 2 h at 4°C, washes with lysis buffer (0,5 M NaCl); immunoblotting
GFP-tagged TAK1 [3] = molecular target: GFP-tagged TAK1 (UniProt O43318); experiment: co-IP; HEK293IL-1R cells transfected, GFP-TAK1 or GFP-TAB1 alone (no co-expressed MYC-TAB1); pulldown with GFP-Trap_A agarose beads, 2 h at 4°C, washes with lysis buffer (0,5 M NaCl); immunoblotting; remark: listed apart in the source

Row | binding (GFP-tagged TAK1 [1]) | binding (GFP-tagged TAK1 [2]) | binding (GFP-tagged TAK1 [3]) | Molecule
1 | binds | binds |  | HA-tagged HSP27 (from UniProt P04792 1-205)
2 | binds | binds |  | 3xFLAG-PPARβ/δ (from UniProt P35396 1-440)
3 |  | binds |  | B1
4 |  | binds | binds | B2
